Data source: PubChem BioAssay AID1259285 (Sanger Institute, 2017)

Screen: 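Search of the kinome for kinases worth combining with drugs in colon cancer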 (primary screen)
Cells: human HCC56 colorectal cancer cells
Reagent: siRNA pool against human genes
Conditions: DMSO vehicle, or anchor drug BYL719 at 1 µM, cetuximab at 5 µg/ml, or trametinib at 10 nM
Detection: 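Replicate-averaged viability relative to non-targeting siRNA, expressed as a robust z-score from controls, plus a synergy score for each of three anchor drugs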
Reading the numbers: viability robust z-score, no drug: higher = more viable cells, weaker knock-down effect; viability vs non-targeting pool, no drug: higher = more viable cells
Rule for the call: 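Essential when the drug-free viability robust z-score falls below -3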
Meaning of the calls: active = essential without drug; inactive = no change without drug
Here is one part, drawn at random, of 794 reagents. Of all reagents, 20 (2.5%) got an active call. 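Calls rest on the drug-free arm alone and ignore synergy scores; viability ratios seem to be capped at 1.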 Unmarked entries are inactive. Further read-outs or replicates are left out here. Not stated in the record: the amount of reagent, the time to read-out.

| gene knocked down | viability robust z-score, no drug | viability vs non-targeting pool, no drug |
| --- | --- | --- |
| HIPK3 (homeodomain interacting protein kinase 3) | 0.458 | 1 |
| PKN3 (protein kinase N3) | 0.458 | 1 |
| AKT1 (AKT serine/threonine kinase 1) | 0.458 | 1 |
| DYRK4 (dual specificity tyrosine phosphorylation regulated kinase 4) | 0.458 | 1 |
| PHKB (phosphorylase kinase regulatory subunit beta) | 0.458 | 1 |
| WNK4 (WNK lysine deficient protein kinase 4) | 0.458 | 1 |
| RFK (riboflavin kinase) | 0.458 | 1 |
| CDKN2C (cyclin dependent kinase inhibitor 2C) | -1.05 | 0.871 |
| FGFR4 (fibroblast growth factor receptor 4) | 0.458 | 1 |
| RPS6KA5 (ribosomal protein S6 kinase A5) | -0.915 | 0.882 |
| RNASEL (ribonuclease L) | 0.458 | 1 |
| FXR1 (FMR1 autosomal homolog 1) | 0.458 | 1 |
| PFKL (phosphofructokinase, liver type) | 0.458 | 1 |
| NRBP1 (nuclear receptor binding protein 1) | 0.458 | 1 |
| PAK5 (p21 (RAC1) activated kinase 5) | 0.458 | 1 |
| EPHB1 (EPH receptor B1) | 0.458 | 1 |
| CASP8 (caspase 8) | 0.458 | 1 |
| SRPK1 (SRSF protein kinase 1) | -0.391 | 0.927 |
| MAP3K14 (mitogen-activated protein kinase kinase kinase 14) | -1.23 | 0.855 |
| TTK (TTK protein kinase) | 0.0345 | 0.964 |

Reformatted: results already given
WNK4 (WNK lysine deficient protein kinase 4) | viability robust z-score, no drug = 0.458; viability vs non-targeting pool, no drug = 1
RFK (riboflavin kinase) | viability robust z-score, no drug = 0.458; viability vs non-targeting pool, no drug = 1
